Measured values from paper PMC6515683.
No constants are given. Whether binding was seen depends on the method and setting. Binding seen in cells or lysates may run through a third protein. These calls come from enrichment with a bait or labelling near it, and not all partners need be listed.

The chains behind the UniProt entries cited, without tags or fusion partners. Where a name states a change or a piece, a line headed by the entry shows the natural chain unless it says otherwise.
UniProt Q13547: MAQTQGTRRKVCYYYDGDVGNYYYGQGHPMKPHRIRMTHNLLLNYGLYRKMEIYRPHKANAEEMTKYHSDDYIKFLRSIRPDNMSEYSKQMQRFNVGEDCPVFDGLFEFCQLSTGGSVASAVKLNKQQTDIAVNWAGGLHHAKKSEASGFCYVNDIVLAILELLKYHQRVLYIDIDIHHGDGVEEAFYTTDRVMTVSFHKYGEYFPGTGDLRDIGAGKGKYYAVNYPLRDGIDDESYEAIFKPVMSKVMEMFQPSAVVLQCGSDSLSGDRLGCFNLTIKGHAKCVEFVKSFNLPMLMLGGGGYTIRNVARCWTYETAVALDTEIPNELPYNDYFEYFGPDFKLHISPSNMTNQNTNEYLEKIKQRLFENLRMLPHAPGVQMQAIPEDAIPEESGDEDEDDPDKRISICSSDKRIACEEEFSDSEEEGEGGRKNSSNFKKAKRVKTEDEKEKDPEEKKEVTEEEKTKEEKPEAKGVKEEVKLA
UniProt P03372: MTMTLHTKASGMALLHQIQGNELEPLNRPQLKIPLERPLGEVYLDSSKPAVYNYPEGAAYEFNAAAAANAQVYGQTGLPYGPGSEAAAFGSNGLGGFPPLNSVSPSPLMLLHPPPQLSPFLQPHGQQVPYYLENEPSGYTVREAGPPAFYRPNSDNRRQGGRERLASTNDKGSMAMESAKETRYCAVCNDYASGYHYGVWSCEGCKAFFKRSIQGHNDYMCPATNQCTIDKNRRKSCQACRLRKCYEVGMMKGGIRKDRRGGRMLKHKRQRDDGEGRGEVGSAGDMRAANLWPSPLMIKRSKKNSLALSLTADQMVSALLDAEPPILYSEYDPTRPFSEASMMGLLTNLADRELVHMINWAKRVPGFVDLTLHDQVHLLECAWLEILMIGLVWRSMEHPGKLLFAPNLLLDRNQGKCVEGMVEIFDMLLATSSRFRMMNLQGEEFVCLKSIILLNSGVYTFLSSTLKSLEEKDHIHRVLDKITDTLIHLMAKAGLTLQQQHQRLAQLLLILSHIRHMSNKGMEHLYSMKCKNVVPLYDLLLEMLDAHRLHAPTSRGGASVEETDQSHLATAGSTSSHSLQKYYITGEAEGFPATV
UniProt P23771: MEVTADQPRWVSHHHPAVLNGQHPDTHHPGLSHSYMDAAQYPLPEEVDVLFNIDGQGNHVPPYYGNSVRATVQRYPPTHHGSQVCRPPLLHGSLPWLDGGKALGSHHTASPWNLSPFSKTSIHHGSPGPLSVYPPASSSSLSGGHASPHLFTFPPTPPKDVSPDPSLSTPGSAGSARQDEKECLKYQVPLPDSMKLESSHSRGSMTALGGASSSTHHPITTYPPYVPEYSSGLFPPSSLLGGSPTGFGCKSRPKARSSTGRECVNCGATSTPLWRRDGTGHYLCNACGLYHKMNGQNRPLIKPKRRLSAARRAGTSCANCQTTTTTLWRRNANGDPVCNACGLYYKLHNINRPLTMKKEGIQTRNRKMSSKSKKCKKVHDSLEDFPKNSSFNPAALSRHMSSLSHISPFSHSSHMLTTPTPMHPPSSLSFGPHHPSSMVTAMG
UniProt P10276: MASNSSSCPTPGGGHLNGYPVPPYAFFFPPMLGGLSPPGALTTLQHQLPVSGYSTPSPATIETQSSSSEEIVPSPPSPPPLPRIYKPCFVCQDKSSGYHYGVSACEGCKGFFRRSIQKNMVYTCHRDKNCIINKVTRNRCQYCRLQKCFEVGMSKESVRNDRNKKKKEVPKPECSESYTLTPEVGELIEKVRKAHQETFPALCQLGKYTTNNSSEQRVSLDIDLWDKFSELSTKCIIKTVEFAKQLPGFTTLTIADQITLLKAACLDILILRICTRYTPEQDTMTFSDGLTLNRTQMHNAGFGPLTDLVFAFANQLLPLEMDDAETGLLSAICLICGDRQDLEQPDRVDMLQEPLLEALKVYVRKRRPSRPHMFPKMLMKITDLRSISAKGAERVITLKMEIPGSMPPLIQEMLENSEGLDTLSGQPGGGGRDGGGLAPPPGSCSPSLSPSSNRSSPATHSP

T1: GRHL2 (human (endogenous in MCF7 and T47D)) (UniProt Q6ISB3)
T1 sequence: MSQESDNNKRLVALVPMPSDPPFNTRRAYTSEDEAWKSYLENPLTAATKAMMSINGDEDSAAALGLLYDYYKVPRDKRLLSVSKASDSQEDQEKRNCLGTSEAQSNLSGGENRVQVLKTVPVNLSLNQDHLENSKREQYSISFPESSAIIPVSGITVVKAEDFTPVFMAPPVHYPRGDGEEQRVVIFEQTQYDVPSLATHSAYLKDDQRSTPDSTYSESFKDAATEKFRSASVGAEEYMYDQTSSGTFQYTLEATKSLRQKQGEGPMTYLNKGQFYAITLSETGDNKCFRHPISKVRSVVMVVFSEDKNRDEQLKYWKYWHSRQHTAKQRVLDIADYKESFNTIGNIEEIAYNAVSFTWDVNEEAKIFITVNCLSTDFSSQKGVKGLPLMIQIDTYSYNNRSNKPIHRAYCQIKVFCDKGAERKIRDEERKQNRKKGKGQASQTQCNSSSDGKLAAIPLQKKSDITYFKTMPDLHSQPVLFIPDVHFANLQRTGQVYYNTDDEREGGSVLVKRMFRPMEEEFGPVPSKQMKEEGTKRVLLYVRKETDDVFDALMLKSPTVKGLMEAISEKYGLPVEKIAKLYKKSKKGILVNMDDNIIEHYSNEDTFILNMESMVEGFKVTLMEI

B1: TIF1A (protein, UniProt O15164 1-1050)
chain: MEVAVEKAVAAAAAASAAASGGPSAAPSGENEAESRQGPDSERGGEAARLNLLDTCAVCHQNIQSRAPKLLPCLHSFCQRCLPAPQRYLMLPAPMLGSAETPPPVPAPGSPVSGSSPFATQVGVIRCPVCSQECAERHIIDNFFVKDTTEVPSSTVEKSNQVCTSCEDNAEANGFCVECVEWLCKTCIRAHQRVKFTKDHTVRQKEEVSPEAVGVTSQRPVFCPFHKKEQLKLYCETCDKLTCRDCQLLEHKEHRYQFIEEAFQNQKVIIDTLITKLMEKTKYIKFTGNQIQNRIIEVNQNQKQVEQDIKVAIFTLMVEINKKGKALLHQLESLAKDHRMKLMQQQQEVAGLSKQLEHVMHFSKWAVSSGSSTALLYSKRLITYRLRHLLRARCDASPVTNNTIQFHCDPSFWAQNIINLGSLVIEDKESQPQMPKQNPVVEQNSQPPSGLSSNQLSKFPTQISLAQLRLQHMQQQVMAQRQQVQRRPAPVGLPNPRMQGPIQQPSISHQQPPPRLINFQNHSPKPNGPVLPPHPQQLRYPPNQNIPRQAIKPNPLQMAFLAQQAIKQWQISSGQGTPSTTNSTSSTPSSPTITSAAGYDGKAFGSPMIDLSSPVGGSYNLPSLPDIDCSSTIMLDNIVRKDTNIDHGQPRPPSNRTVQSPNSSVPSPGLAGPVTMTSVHPPIRSPSASSVGSRGSSGSSSKPAGADSTHKVPVVMLEPIRIKQENSGPPENYDFPVVIVKQESDEESRPQNANYPRSILTSLLLNSSQSSTSEETVLRSDAPDSTGDQPGLHQDNSSNGKSEWLDPSQKSPLHVGETRKEDDPNEDWCAVCQNGGELLCCEKCPKVFHLSCHVPTLTNFPSGEWICTFCRDLSKPEVEYDCDAPSHNSEKKKTEGLVKLTPIDKRKCERLLLFLYCHEMSLAFQDPVPLTVPDYYKIIKNPMDLSTIKKRLQEDYSMYSKPEDFVADFRLIFQNCAEFNEPDSEVANAGIKLENYFEELLKNLYPEKRFPKPEFRNESEDNKFSDDSDDDFVQPRKKRLKSIEERQLLK
B2: GRHL2 (protein, UniProt Q6ISB3 1-625)
chain: T1 sequence

molecular target: T1, GRHL2 (human (endogenous in MCF7 and T47D)); assay: affinity purification with mass spectrometry; qPLEX-RIME (RIME with TMT isobaric labels) of GRHL2 in estrogen-free and estrogenic conditions; GRHL2 is the bait; cell line not stated

binding, binds:
PRMT
HDAC1 (from UniProt Q13547 1-482)
estrogen receptor-alpha (from UniProt P03372 1-595)
B1

molecular target: estrogen receptor-alpha (human (endogenous in MCF7 and T47D)) (UniProt P03372); assay: affinity purification with mass spectrometry; qPLEX-RIME (RIME with TMT isobaric labels) of ER from formaldehyde-fixed MCF7 cells treated with estradiol for 45 and 90 min; ER is the bait

binding, binds:
GATA3 (from UniProt P23771 1-443)
RARA (from UniProt P10276 1-462)
B2
